“And” between values parts separate entries of the source, which are not always exact repeats. Identical values can stand only once. The list shows a part of the results. Further columns of the screen follow, without active or inactive calls. Compounds called inactive in the main read-out are mostly missing here. The note in brackets gives the kind of curve behind each potency; many fits are weak.
Assay: qHTS Assay for Lipid Storage Modulators in Drosophila S3 Cells;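 as to cell number change: cells counted by Cell Tracker Red CMTPX staining in the red channel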
Settings: BODIPY lipid droplet fluorescence, 18-24 h; for cell number change: measured here: cell count max response, cells fed with added oleic acid
Summary of the method: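 Laser-scanning cytometry quantifies lipid droplet accumulation (500–530 nm total intensity; droplet/cell object ratio) in oleic acid-fed (400 uM added) Drosophila S3 cells treated with a concentration series. 20 uM Triacsin C defined 100% inhibition.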

[1] = measured here: cell number channel AC50, cells fed with added oleic acid
[2] = measured here: lipid fluorescence (Fed channel) AC50, cells fed with added oleic acid

Compound | AC50 [1] | cell number change | AC50 [2]
COC(=O)/C=c1/s/c(=C(/C#N)C(=O)NCc2ccccc2)n(-c2ccccc2)c1=O | 0.58 µM [rising, single point] |  | 
Cc1ccc(-c2nc3sc4c(N)ncnc4c3c3c2CCCC3)cc1 |  | 10.4% | 
CSc1nnc(-c2cnccn2)n1CCCN1CCCC1=O | 0.103 µM [falling, full curve, poor fit] | -2.1% | 
COc1cc(CNCCN2CCOCC2)ccc1OCc1ccc(Cl)cc1Cl | 29.1 µM [falling, single point] | -59.9% | 6.51 µM [falling, single point]
Cc1ccc(NC(=O)C(C)OC(=O)CCN=C2NS(=O)(=O)c3ccccc32)cc1 (configuration not stated) |  | -13.3% | 2.31 µM [rising, single point]
Cc1ccc(C)c(OCC(=O)NCC(c2ccco2)N2CCCCC2)c1 (configuration not stated) | 3.26 µM [falling, partial curve] |  | 32.6 µM [falling, single point]
Nc1ccc2nc(SCC(=O)N3CCN(c4ccccc4)CC3)sc2c1 |  | 16% | 0.164 µM [rising, partial curve, poor fit]
Cc1cccc(Nc2nnc(SCC(=O)Nc3ccccc3[N+](=O)[O-])s2)c1C | 6.51 µM [rising, partial curve, poor fit] | 12.2% | 
CCOC(=O)c1ccc(NCc2nc3ccccc3n2C)cc1 | 29.1 µM [falling, single point] | -30.8% | 
O=C(O)C1CCCN1S(=O)(=O)c1ccc2c(c1)CCC2 (configuration not stated) |  | 2.49% | 5.8 µM [falling, full curve]
Clc1ccc(Cn2ccc(C3CC3)n2)cc1 | 2.91 µM [falling, single point] | 4.96% | 
O=C(Nc1cccc(-c2nc3ccccc3[nH]2)c1)c1ccc(C(=O)Nc2cccc(-c3nc4ccccc4[nH]3)c2)cc1 | 2.59 µM [falling, full curve] | -70.7% | 2.31 µM [falling, full curve]
COCCNC(=O)c1csc2c1CCCC2 |  | 9.67% | 3.26 µM [falling, partial curve]
COC(=O)c1cc(NC(=O)c2cc3ccccc3o2)cc(C(=O)OC)c1 |  | -29.9% | 13 µM [falling, partial curve]
CCC(=O)c1ccc(OCC(=O)OCC(=O)c2cc(C)n(C3CC3)c2C)cc1 |  | -7.5% | 
Cc1cc(NC(=O)CCC(=O)N(CC(=O)NCC2CCCO2)c2cccc(F)c2)no1 (configuration not stated) |  | 19.6% | 0.13 µM [rising, partial curve, poor fit]
COc1ccc(C2=C(CN(C)C)C(c3ccccc3)c3ccccc3O2)cc1 (configuration not stated) | 5.17 µM [falling, full curve] | -39.4% and -157% | 14.6 µM [falling, partial curve] and 29.1 µM [falling, single point]
CN1CCN(c2nc3c(c(=O)[nH]c(=O)n3C)n2Cc2cccc3ccccc23)CC1 | 20.6 µM [rising, single point] | 43.8% | 6.51 µM [falling, single point]
COC(=O)[C@@H]1CCCN1Cc1nc(Cc2ccc(OC)c(OC)c2)no1 |  | 20.4% | 29.1 µM [rising, single point]
CCN(CC)S(=O)(=O)c1ccc2c(c1)c(=O)c(C(=O)NCCCN(C)c1ccccc1)cn2C |  | 14.1% | 2.31 µM [rising, full curve, poor fit]
Cc1ccc(NC(=O)Nc2cnc3ccccc3c2)cc1 |  | -27.7% | 

Compound | AC50 [1] | cell number change | AC50 [2]
CCN(CC)C(=O)Cn1cc(SCC(=O)NCc2ccco2)c2ccccc21 | 0.82 µM [falling, single point] | -12.9% | 
N=C1S/C(=C\c2ccc(-c3ccccc3C(=O)O)o2)C(=O)N1c1ccc2c(c1)OCO2 | 29.1 µM [falling, single point] | -30% | 29.1 µM [falling, single point]
Brc1ccc(CNc2cc3c(cc2Br)OCCO3)cc1 | 0.461 µM [rising, single point] |  | 
Cc1ccc(-c2csc3nnc(SCC(=O)N4CCN(Cc5ccccc5)CC4)n23)cc1 |  | -12.1% | 4.61 µM [rising, partial curve]
O=C(Nc1nnc(COc2ccccc2)s1)C1CCN(S(=O)(=O)c2ccc(Cl)cc2)CC1 | 13 µM [falling, partial curve, poor fit] | -49.6% | 5.8 µM [falling, single point]
Cc1ccc(N(C)S(=O)(=O)c2cccc(C(=O)Nc3nnc(C4CC4)s3)c2)cc1 | 4.61 µM [rising, single point] | 19.1% | 
CC(C)(C)c1cc(=O)[nH]c(SCc2ccccc2)n1 | 0.82 µM [falling, single point] | -16.3% | 
COc1cc(C(=O)NCC2CCCO2)ccc1OCc1c(C)noc1C (configuration not stated) | 5.8 µM [falling, single point] |  | 6.51 µM [falling, partial curve]
Cc1ccc(CCNC(=O)c2ccc(CS(=O)(=O)Cc3ccccc3F)o2)cc1 |  |  | 4.11 µM [falling, partial curve]
COc1ccccc1NC(=O)Nc1nc(CC(=O)Nc2ccccc2F)cs1 |  | -9.94% | 29.1 µM [falling, single point]
CC(C)c1ccc(NC(=O)COC(=O)/C=C/c2cccc([N+](=O)[O-])c2)cc1 |  | 15.5% | 20.6 µM [rising, single point]
COc1ccc(NC(=O)CN2CCN(S(=O)(=O)c3ccc(Cl)cc3)CC2)cc1Cl |  | -20.1% | 
COc1cccc(N2CCN(C(=O)c3ccc(CS(=O)c4ccc(Cl)cc4)o3)CC2)c1 (configuration not stated) |  | 0.295% | 
O=C1C2N=NN(CC(=O)N3N=C(c4ccccc4)CC3c3ccc([N+](=O)[O-])cc3)C2C(=O)N1c1ccccc1 (configuration not stated) | 29.1 µM [rising, single point] | 146% | 
COc1ccc(OC)c(NC(=O)CCS(=O)(=O)c2cc3c(cc2C)NC(=O)CO3)c1 |  | -23.9% | 0.58 µM [falling, single point]
CCc1ccccc1N(CC(=O)N1CCN(c2ccccc2)CC1)S(C)(=O)=O |  | -7.85% | 3.66 µM [rising, single point]
COC(=O)C1=CN(C2CC2)C=C(C(=O)OC)C1c1ccc(C(=O)OC)cc1 |  | 4.74% | 0.116 µM [falling, single point]
COc1ccccc1OCc1nc(Cc2ccc(Cl)cc2)no1 |  | -9.69% | 29.1 µM [rising, single point]
COc1ccc2c(c1OC)C(=O)N(c1cccc(C)c1)C2 | 14.6 µM [falling, partial curve] | -36.9% | 0.092 µM [falling, full curve, poor fit]
CCOC(=O)Cn1nc(C)c(NC(=O)c2cccc([N+](=O)[O-])c2)c1C |  | -13.4% | 4.61 µM [falling, single point]
CCc1ccc(NC(=O)NNC(=O)c2cc3ccccc3cc2O)cc1 |  | 33.7% | 

Compound | AC50 [1] | cell number change | AC50 [2]
O=C(CCNC(=O)c1ccc([N+](=O)[O-])cc1)Nc1ccc(F)cc1 |  | 1.8% | 
Cc1ccc(S(=O)(=O)NC(C)C(=O)NC(C)c2cccs2)cc1 (configuration not stated) |  | -19.8% | 13 µM [rising, partial curve]
O=C(Nc1ccc(CN2CCOCC2)cc1)c1cccc(-c2cc3ccccc3oc2=O)c1 |  | 4.59% | 
CCc1cc2ccc(C)cc2nc1SCC(=O)NC1CCCC1 |  | 3.85% | 
CC1Cc2ccccc2N1NC(=O)c1ccc(Cl)c(S(N)(=O)=O)c1 (configuration not stated) |  | -20.6% | 7.31 µM [falling, partial curve, poor fit]
COC(=O)c1cnc(Oc2c(Cl)cc(N)cc2Cl)cc1C(F)(F)F |  | -29.3% | 32.6 µM [falling, single point]
CCOc1ccccc1C1CC(=O)Nc2cc(C)c(C)cc21 (configuration not stated) |  | -8.39% | 29.1 µM [falling, single point]
S=c1[nH]nc(-c2ccncc2)n1Cc1ccco1 |  | -4.15% | 
O=C(Cn1nc(-c2ccc(Cl)cc2)ccc1=O)NCc1ccc2c(c1)OCO2 | 0.58 µM [rising, single point] |  | 
CCCC(=O)Nc1nnc(Cc2ccccc2)s1 | 0.731 µM [rising, full curve, poor fit] |  | 
CNC(=O)c1sccc1S(=O)(=O)Cc1c(Cl)cccc1Cl |  |  | 0.00461 µM [rising, full curve, poor fit]
COc1cc(/C=N\NC(=O)CNC(=O)c2cccc([N+](=O)[O-])c2)ccc1O | 6.51 µM [falling, single point] | -11.3% | 
O=C(C1CC1c1ccccc1)N1CCN(c2cccc(Cl)c2)CC1 (configuration not stated) |  | 4.88% | 0.92 µM [falling, full curve, poor fit]
COc1ccc(-n2nnnc2SCC(=O)NC2CCCC2)cc1OC |  | -21.1% | 
CC(C)CCN(C(=O)C1CCCC1)c1c(N)n(Cc2ccccc2)c(=O)[nH]c1=O |  | 4.82% | 0.731 µM [rising, single point]
COc1ccccc1C(=O)NC(=O)COC(=O)CNC(=O)c1ccccc1 | 29.1 µM [rising, single point] | 75% | 
Cn1c(SCC(=O)c2ccccc2)nnc1-c1ccccn1 |  | 28.7% | 20.6 µM [rising, single point]
COc1ccc(-n2nc3c(c2NC(=O)COc2ccccc2)CS(=O)C3)cc1 (configuration not stated) |  | 15% | 0.731 µM [rising, partial curve, poor fit]
Nc1ccc(-n2ccnc2)cc1 |  | 13.2% | 29.1 µM [rising, single point]

From PubChem BioAssay AID2685 (National Center for Advancing Translational Sciences (NCATS), 2010)
